For at least one entry, the source does not settle the construct or the ends of the probe. At least one verdict rests on a figure or table, not on a statement of the authors.
Biological target: DNMT3B MTase domain WT (human) (UniProt Q9UBC3)
Test: EMSA
Details: 40 nM DNA, 0-800 nM protein; EMSA: 50 mM Tris-HCl pH 8.0, 25% glycerol, 8% glucose, 2 mM DTT, 0.1 mg/mL BSA, 30 min, gel in 0.5x TBE at 4 C; recombinant …; residues 569-853; protein details: His6-MBP removed by TEV

“GACGACGACGACGACGACGACGACGACGACGACGAC (double strand) [(GAC)12 DNA duplex]”: binds.

Reference: PMC9307851
